Measurements reported in paper PMC4001879.
Results are given in words; binding and its absence hold for the method and conditions named. In cells and extracts the contact can be indirect. Some results given as binding are weak or reduced against the parent protein; the word gives no strength.

Chains of the proteins cited; added tags and fusions are not shown.
UniProt O94916: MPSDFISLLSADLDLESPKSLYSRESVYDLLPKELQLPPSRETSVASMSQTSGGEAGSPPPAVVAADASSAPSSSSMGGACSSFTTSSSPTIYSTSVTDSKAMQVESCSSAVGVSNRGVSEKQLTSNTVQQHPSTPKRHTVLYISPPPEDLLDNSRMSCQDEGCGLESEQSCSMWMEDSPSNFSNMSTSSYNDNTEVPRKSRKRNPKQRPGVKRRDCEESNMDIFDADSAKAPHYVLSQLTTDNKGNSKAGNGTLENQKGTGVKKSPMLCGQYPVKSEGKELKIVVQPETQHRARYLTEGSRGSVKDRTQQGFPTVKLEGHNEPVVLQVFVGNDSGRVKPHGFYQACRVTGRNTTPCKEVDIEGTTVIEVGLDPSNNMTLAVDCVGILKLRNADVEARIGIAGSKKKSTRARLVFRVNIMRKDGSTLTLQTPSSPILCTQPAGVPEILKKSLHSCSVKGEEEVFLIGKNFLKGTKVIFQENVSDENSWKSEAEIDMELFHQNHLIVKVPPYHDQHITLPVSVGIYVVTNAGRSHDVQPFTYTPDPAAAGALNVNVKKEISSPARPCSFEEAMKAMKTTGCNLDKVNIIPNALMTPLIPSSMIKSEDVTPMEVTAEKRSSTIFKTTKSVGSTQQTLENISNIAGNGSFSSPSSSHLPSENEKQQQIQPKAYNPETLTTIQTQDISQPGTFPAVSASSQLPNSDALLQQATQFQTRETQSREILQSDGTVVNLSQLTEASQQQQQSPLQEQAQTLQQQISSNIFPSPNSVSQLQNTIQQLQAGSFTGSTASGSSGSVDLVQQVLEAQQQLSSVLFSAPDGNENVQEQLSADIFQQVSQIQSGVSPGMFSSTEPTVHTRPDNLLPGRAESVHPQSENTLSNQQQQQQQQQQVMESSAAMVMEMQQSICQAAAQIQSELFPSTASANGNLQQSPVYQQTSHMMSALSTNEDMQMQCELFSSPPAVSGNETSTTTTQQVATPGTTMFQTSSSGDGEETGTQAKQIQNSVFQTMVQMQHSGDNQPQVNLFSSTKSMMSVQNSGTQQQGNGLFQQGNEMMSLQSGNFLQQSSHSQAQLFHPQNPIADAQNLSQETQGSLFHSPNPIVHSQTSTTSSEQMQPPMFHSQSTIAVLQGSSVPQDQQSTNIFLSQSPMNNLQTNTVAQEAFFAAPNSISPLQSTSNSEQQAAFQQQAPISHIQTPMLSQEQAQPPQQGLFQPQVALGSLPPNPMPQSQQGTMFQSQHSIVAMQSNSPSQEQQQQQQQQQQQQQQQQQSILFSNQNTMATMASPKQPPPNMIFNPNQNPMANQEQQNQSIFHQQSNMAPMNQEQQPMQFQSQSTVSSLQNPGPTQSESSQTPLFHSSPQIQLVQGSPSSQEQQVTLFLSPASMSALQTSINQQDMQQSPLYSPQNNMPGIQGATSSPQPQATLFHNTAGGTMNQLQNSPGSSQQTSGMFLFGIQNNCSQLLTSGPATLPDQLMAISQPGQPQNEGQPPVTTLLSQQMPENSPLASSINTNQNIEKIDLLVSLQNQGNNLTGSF
UniProt P31946: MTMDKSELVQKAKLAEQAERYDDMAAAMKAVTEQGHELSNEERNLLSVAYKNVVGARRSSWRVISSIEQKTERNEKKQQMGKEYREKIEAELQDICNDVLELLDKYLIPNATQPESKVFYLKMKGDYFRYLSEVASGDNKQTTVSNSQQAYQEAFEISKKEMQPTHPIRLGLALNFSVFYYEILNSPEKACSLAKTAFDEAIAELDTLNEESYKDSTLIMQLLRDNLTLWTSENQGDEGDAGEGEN
UniProt P62258: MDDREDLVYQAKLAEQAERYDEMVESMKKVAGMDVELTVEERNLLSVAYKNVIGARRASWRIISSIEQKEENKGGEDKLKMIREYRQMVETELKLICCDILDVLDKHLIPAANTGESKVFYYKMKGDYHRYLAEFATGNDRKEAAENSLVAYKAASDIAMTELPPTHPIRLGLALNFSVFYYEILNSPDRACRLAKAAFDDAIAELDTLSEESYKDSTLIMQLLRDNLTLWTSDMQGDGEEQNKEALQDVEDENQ

What follows are substances tested against NFAT5-V5 (NFAT5, isoform c, NP_006590) (UniProt O94916) (assay: co-IP; NFAT5-V5 immunoprecipitated with anti-V5 antibody conjugated Dynabeads from precleared extracts of transfected HEK293 cells (PhosphoSafe Extraction Reagent); cells incubated at 300 or 500 mosmol/kg (NaCl varied) for 1 h before harvest; immunoprecipitates immunoblotted).

Substance | binding
14-3-3-β (from UniProt P31946 1-246) | no binding
14-3-3-ε (from UniProt P62258 1-255) | no binding
CDK5 (from UniProt Q00535 1-292) | binds
